Measured values from patent US10744457B2, “Electrochemical separator” (Hamilton Sundstrand Corporation, priority 2017, dated 2020).
At least one structure is not confirmed: it was looked up by name or label, or the drawing left a doubt.

Key:
[1] = reduction-oxidation potential determined against a reversible hydrogen electrode; assay type: physicochemical
[2] = susceptibility to oxidation in the presence of free oxygen; assay type: physicochemical; settings: inferred from redox potential
Source text: Another example would be an anthraquinone functionalized with sulfonate groups, such as 2,7 anthraquinone disulfonic acid. The 1,2 benzoquinone disulfonic acid has a higher reduction-oxidation potential than anthraquinone (approximately 0.8V versus 0.2V, as determined against a reversible hydrogen electrode).

O=C1C=C(S(=O)(=O)O)C=C(S(=O)(=O)O)C1=O [1,2 benzoquinone disulfonic acid]
reduction-oxidation potential [1]: approximately 0.8 V | oxidation in the presence of oxygen [2]: does not readily oxide in the presence of oxygen
